Some of the results follow.
Each sequence was assayed against OsWRKY34 (Oryza sativa, UniProt Q0JBA9 1-250) (assay: protein-binding microarray (RPBM); PBS, 2% BSA, 51.3 ng/ul salmon testes DNA, 50 uM zinc acetate, 200 nM TF, 25 C, 1 h; high values mean tight binding). Conditions: protein: recombinant; tags: N-terminal polyhistidine and DsRed monomer fusion (pET32a); label: CyDye5-dUTP incorporated in the synthesized complementary strand; 3' TTTTT single-stranded linker to array surface; dsDNA, one strand shown.
Procedure, shortened: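 Polyhistidine-tagged DsRed fusions of transcription factors, joined at the N-terminus, were expressed in E. coli BL21-CodonPlus and isolated on Ni–NTA. They were incubated at 200 nM for 1 h at 25 °C on a custom Agilent array, double-stranded and BSA-blocked, in PBS with 2% BSA, salmon testes DNA and 50 µM zinc acetate. The binding signal is per-feature fluorescence intensity (arbitrary units) read on an Axon 4000B scanner after washing.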

The chains behind the UniProt entries cited, without tags or fusion partners.
UniProt Q0JBA9, entry or part of it: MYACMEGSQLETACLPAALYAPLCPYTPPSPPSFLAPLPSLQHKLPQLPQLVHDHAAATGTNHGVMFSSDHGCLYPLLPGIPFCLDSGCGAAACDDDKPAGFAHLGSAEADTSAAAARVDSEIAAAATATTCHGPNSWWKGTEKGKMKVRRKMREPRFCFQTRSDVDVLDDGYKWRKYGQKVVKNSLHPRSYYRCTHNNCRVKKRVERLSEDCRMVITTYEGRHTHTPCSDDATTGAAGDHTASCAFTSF

Sequence	binding signal
CATACGAACACATTGTCCCTTTCTTCGTTTATAATTCGAGCGGAGTCACCTAGTGCAG	8050 fluorescence intensity (a.u.)
GTGTTTTCTTTTCCGCGTGCCCTTTTTTATGTTACGGATTCGGAGTCACCTAGTGCAG	13200 fluorescence intensity (a.u.)
CTTTTTATCTCAAATTTGAAAACTTTCAACTTGGATTTGACGGAGTCACCTAGTGCAG	8520 fluorescence intensity (a.u.)
AGGCGCTATCCGGTTGACCAAACCAGCCTACCAACCCGTCCGGAGTCACCTAGTGCAG	8350 fluorescence intensity (a.u.)
GTTTCCATTTCTGTTATTTTTTATTTCAAATTTCATTCTTCGGAGTCACCTAGTGCAG	11800 fluorescence intensity (a.u.)
TCCGATTTGTACCGATATGTTTTCATCCGTATTGTTCCGCCGGAGTCACCTAGTGCAG	11000 fluorescence intensity (a.u.)
CGCCGCTCGTCGTGGTGGGTAGGGGATTCACTGATTTGCTCGGAGTCACCTAGTGCAG	16000 fluorescence intensity (a.u.)
CCATAGCGTCTTCCGTCGAGGTCATGACCGTCTTCAATCTCGGAGTCACCTAGTGCAG	8500 fluorescence intensity (a.u.)
GCCCGCTCTGGACCAGATTGCCCTATTTCTCTCCACCACACGGAGTCACCTAGTGCAG	9180 fluorescence intensity (a.u.)
GGTTCTCTTTTCTTTTCTTTTCTTTTCTCCTGGAGTTTTTCGGAGTCACCTAGTGCAG	9120 fluorescence intensity (a.u.)
TTGCTGCCTTACCATATCCTACTTTATTGCAACCAATTTTCGGAGTCACCTAGTGCAG	13400 fluorescence intensity (a.u.)
ACCAAGCCACGGACTCCTCTAATTCTCTCTCTTGCTTTCTCGGAGTCACCTAGTGCAG	11700 fluorescence intensity (a.u.)
ACACATTTTGCTAGATCTGTAGTTGTAGACACGCGATATTCGGAGTCACCTAGTGCAG	8740 fluorescence intensity (a.u.)
GCGGCGAATTCGCCTCTTTCCTTCCGCTTCCGCCTACCTCCGGAGTCACCTAGTGCAG	9380 fluorescence intensity (a.u.)
GTTTACTTAGATCGAGTTGTTGGGTTTGACAGGTCTGAAACGGAGTCACCTAGTGCAG	11500 fluorescence intensity (a.u.)
TTCAACGACGCGCGCGTTCTCACACCTTCTTCCACGCTGACGGAGTCACCTAGTGCAG	9290 fluorescence intensity (a.u.)
AAATGGTGTGTGTAGTGTTCTTCTCCTCCTTCTTGCGGGGCGGAGTCACCTAGTGCAG	9870 fluorescence intensity (a.u.)
CTAATCATGCAGACACCATATATTAATTCATACTCTTCTTCGGAGTCACCTAGTGCAG	8080 fluorescence intensity (a.u.)
CGTGTCCCGGCACCTCTTGATCGCCATGGTCGTCGACGACCGGAGTCACCTAGTGCAG	9660 fluorescence intensity (a.u.)
GGCAGCCACCCCGCTTGCATCTTCCCTCTACCTACCTACCCGGAGTCACCTAGTGCAG	8060 fluorescence intensity (a.u.)
TTATTGGTCAAGGGAATATCTATTATTAAAAAATGAGTGTCGGAGTCACCTAGTGCAG	10700 fluorescence intensity (a.u.)

Reprinted at random: three records from the list, in no set order.
Sequence	binding signal
GTTTCCATTTCTGTTATTTTTTATTTCAAATTTCATTCTTCGGAGTCACCTAGTGCAG	11800 fluorescence intensity (a.u.)
CGCCGCTCGTCGTGGTGGGTAGGGGATTCACTGATTTGCTCGGAGTCACCTAGTGCAG	16000 fluorescence intensity (a.u.)
GTTTACTTAGATCGAGTTGTTGGGTTTGACAGGTCTGAAACGGAGTCACCTAGTGCAG	11500 fluorescence intensity (a.u.)

(cont.)

Sequence	binding signal
TTCGTGGATTCAAAAGCTTTCACTTGGTACTTCTAATTCTCGGAGTCACCTAGTGCAG	8580 fluorescence intensity (a.u.)
CAAAAGCATGTGTGATTTGTTCAGCTGTTCTGTTCGTGTCCGGAGTCACCTAGTGCAG	8780 fluorescence intensity (a.u.)
CTCCCTCCCACTCCCCTTTTCGTAATTCCTTCCGCGCTTTCGGAGTCACCTAGTGCAG	8150 fluorescence intensity (a.u.)
CATGTGTGTTGGCGCTGCCAGTGTGTGGGTGGTGGTATATCGGAGTCACCTAGTGCAG	8760 fluorescence intensity (a.u.)
GGACTTCACCGCATCGGTCAACGGTAACCCTTATGCCAGCCGGAGTCACCTAGTGCAG	8490 fluorescence intensity (a.u.)
ACTACTCGATCGCCGGCGTCGCGGTCGCCATCCGCCGCATCGGAGTCACCTAGTGCAG	9290 fluorescence intensity (a.u.)
CGTTTTTGTTTCTGAGCATTTCTTCCTCAGTTCAGAGCTACGGAGTCACCTAGTGCAG	9320 fluorescence intensity (a.u.)
TCTCCGTGCATCCATCGATCCCGCGGCGACCACCGTTATCCGGAGTCACCTAGTGCAG	10200 fluorescence intensity (a.u.)
GTTTTTTTTTTTTGGCGCAGGGAGTGGTGGCGTGGTGTGTCGGAGTCACCTAGTGCAG	8170 fluorescence intensity (a.u.)
GTCTCCACGTATTTCTCTCTTCCATAGCAGCAGATGTCCTCGGAGTCACCTAGTGCAG	8090 fluorescence intensity (a.u.)
ATCTTACTTATTTGGTTTTGGTCCGCATACTGGTAGTATGCGGAGTCACCTAGTGCAG	8490 fluorescence intensity (a.u.)
GCAACATCCATCCGTCCATCCCCGATCCAACGGCCGATCCCGGAGTCACCTAGTGCAG	9530 fluorescence intensity (a.u.)
GTCAAACGTTGTTCAAAAAGTCAATGGCGTCATACATTAGCGGAGTCACCTAGTGCAG	8600 fluorescence intensity (a.u.)
AGTATCGCCTTTCGCCGTATATTTCGCCTCACATTTGAACCGGAGTCACCTAGTGCAG	10100 fluorescence intensity (a.u.)
GCTGTAACCACTAGCCACCCATATATACTGCCATGAGACCCGGAGTCACCTAGTGCAG	8610 fluorescence intensity (a.u.)
GATATCTCGTACCTCATATTACCTCGTGGTACCTCCTCAACGGAGTCACCTAGTGCAG	9380 fluorescence intensity (a.u.)
TTTGTTTTTGTTGTAAGCCCTTTTGCCCATACTATGACCACGGAGTCACCTAGTGCAG	12200 fluorescence intensity (a.u.)
CGTTTTCTTTATACTCCCTCCGTTTCGTTTTATTTGACGTCGGAGTCACCTAGTGCAG	8790 fluorescence intensity (a.u.)
ATAGCTCATTCATACAATAGTTACATACTACACTATTAATCGGAGTCACCTAGTGCAG	8680 fluorescence intensity (a.u.)
GTGTGTTCGAGTTTCATCGCGATTCGATCGTTGTCTACTGCGGAGTCACCTAGTGCAG	8610 fluorescence intensity (a.u.)
CTCGATTGCGTGTTGTAGATTTTGTGTTTTTGTTCTTGCGCGGAGTCACCTAGTGCAG	8030 fluorescence intensity (a.u.)

From article PMC7819943, “Rice protein-binding microarrays: a tool to detect cis-acting elements near promoter regions in rice”
